Measured data: PubChem BioAssay AID504786 (Drosophila RNAi Screening Center, 2011)
The deposit covers about 21,000 reagents; below is a random part of those with a known target gene and a result. 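Primary screen; positive scores mean lost reporter signal, so the sign may be inverted from the usual convention.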 Names joined by + are all predicted targets of the reagent. Further read-outs or replicates are left out here.

Screen: 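Positive regulators of HIF-driven reporter output in Drosophila cells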 (primary screen)
Cell system: Drosophila S2 cells with a stable HIF luciferase reporter
Reagents: long dsRNA against Drosophila genes, about 0.2 µg dsRNA per well of a 384-well plate
Duration: three days of knock-down, then 20 h of DFO before reading
Treatment: desferrioxamine (DFO) at 100 µM, an iron chelator that mimics hypoxia, for 20 h
Measurement: 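Firefly luciferase driven by the mouse ldh-a hypoxia-response element, measured after 20 h of 100 µM DFO; z-scores per plate, higher means more signal lost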
Reading the numbers: z-score: higher = stronger loss of HIF reporter signal

gene knocked down | amplicon | z-score, replicate 1 | z-score, replicate 2 | z-score, replicate 3
Clamp | DRSC03718 | -0.3 | -0.3 | –
dia | DRSC03519 | -0.4 | -0.5 | –
Tango2 | DRSC19394 | -0.2 | -0.2 | –
Six4 | DRSC11881 | -0.3 | -0.3 | –
CG32809 | DRSC18507 | 0 | 0 | 0.8
CG32809 | DRSC18562 | -0.1 | -0.6 | –
CG32809 | DRSC18592 | 0 | -0.1 | –
Mal-A1 | DRSC07461 | -0.3 | -0.7 | –
Rpt1 | DRSC07542 | 6.4 | 5.1 | –
Gr59b | DRSC04179 | -0.2 | 0 | –
CG31468 | DRSC13637 | 0 | 0.2 | –
dah | DRSC20320 | -0.5 | -0.2 | –
CG34260 + cmpy | DRSC11701 | -0.1 | -0.4 | –
CG17378 | DRSC02616 | -0.4 | -0.1 | –
Dnaaf6 | DRSC10473 | -0.1 | -0.5 | –
ATP6AP2 | DRSC16420 | -0.1 | -0.6 | –
CG13084 | DRSC02188 | -0.2 | -0.1 | –
CG6041 | DRSC18396 | -0.3 | -0.5 | –
CG10163 | DRSC09710 | -0.3 | -0.8 | –

An excerpt from the list above:
gene knocked down | amplicon | z-score, replicate 1 | z-score, replicate 2 | z-score, replicate 3
Gr59b | DRSC04179 | -0.2 | 0 | –
CG31468 | DRSC13637 | 0 | 0.2 | –
dah | DRSC20320 | -0.5 | -0.2 | –
CG34260 + cmpy | DRSC11701 | -0.1 | -0.4 | –
CG17378 | DRSC02616 | -0.4 | -0.1 | –
Dnaaf6 | DRSC10473 | -0.1 | -0.5 | –
ATP6AP2 | DRSC16420 | -0.1 | -0.6 | –
CG13084 | DRSC02188 | -0.2 | -0.1 | –
CG6041 | DRSC18396 | -0.3 | -0.5 | –

The list goes on.
gene knocked down | amplicon | z-score, replicate 1 | z-score, replicate 2 | z-score, replicate 3
CG17237 | DRSC00491 | 0 | -0.2 | –
Pez | DRSC03397 | -0.3 | -0.8 | –
Gss1 + Gss2 | DRSC20008 | -0.4 | -0.2 | –
tkv | DRSC00860 | 0.1 | 0.3 | –
tkv | DRSC03623 | -0.2 | 0 | –
tex | DRSC16517 | 0.1 | 0.9 | –
CG10151 | DRSC05974 | -0.3 | -0.4 | –
CG12992 | DRSC19512 | -0.3 | -1 | –
CG42724 | DRSC12567 | 0 | -0.1 | –
KrT95D | DRSC16725 | -0.2 | 0.2 | –
Stt3A | DRSC20514 | -0.3 | -0.5 | –
Iru | DRSC14457 | -0.4 | -0.4 | –
Lcp4 | DRSC07458 | -0.3 | -0.6 | –
borr | DRSC02749 | 0 | -0.5 | –
dve | DRSC04680 | -0.1 | -0.1 | –
CG31008 | DRSC14028 | -0.4 | -0.4 | –
CG7706 | DRSC16295 | -0.2 | 0.8 | –
Cyp12b2 | DRSC07364 | -0.3 | -0.2 | –
CG10051 | DRSC05959 | -0.4 | -0.2 | –
CG42516 + Pbp49 | DRSC06073 | -0.3 | -0.4 | –
Brms1 | DRSC19896 | -0.1 | 0 | –
lectin-46Cb | DRSC06611 | -0.2 | -0.4 | –
pre-mod(mdg4)-W + pre-mod(mdg4)-Y + mod(mdg4) + 3 more | DRSC16328 | -0.4 | 0.1 | –
fabp + sea | DRSC16114 | -0.2 | 0.1 | –
fabp + sea | DRSC16115 | -0.4 | -0.5 | –
Gr64b | DRSC08444 | -0.2 | -0.3 | –
CG9861 | DRSC04576 | -0.1 | -0.3 | –
niki | DRSC14285 | 0 | -0.2 | –
Pcd | DRSC16785 | -0.4 | -0.3 | –
kay | DRSC13962 | -0.2 | -0.2 | –
kay | DRSC15048 | -0.6 | -1 | –
kay | DRSC16977 | -0.2 | -1.1 | –
CG7006 | DRSC16169 | -0.1 | 1.7 | –
ham | DRSC02070 | -0.2 | -0.2 | –
ham | DRSC02512 | -0.3 | -0.3 | –
ham | DRSC02513 | -0.3 | -0.5 | –
Bcs1 | DRSC02789 | -0.1 | -0.3 | –
